One molecule from PMC7044199 can be followed below.

By UniProt entry, the sequences of proteins in these tests, tags left out.
UniProt P19474: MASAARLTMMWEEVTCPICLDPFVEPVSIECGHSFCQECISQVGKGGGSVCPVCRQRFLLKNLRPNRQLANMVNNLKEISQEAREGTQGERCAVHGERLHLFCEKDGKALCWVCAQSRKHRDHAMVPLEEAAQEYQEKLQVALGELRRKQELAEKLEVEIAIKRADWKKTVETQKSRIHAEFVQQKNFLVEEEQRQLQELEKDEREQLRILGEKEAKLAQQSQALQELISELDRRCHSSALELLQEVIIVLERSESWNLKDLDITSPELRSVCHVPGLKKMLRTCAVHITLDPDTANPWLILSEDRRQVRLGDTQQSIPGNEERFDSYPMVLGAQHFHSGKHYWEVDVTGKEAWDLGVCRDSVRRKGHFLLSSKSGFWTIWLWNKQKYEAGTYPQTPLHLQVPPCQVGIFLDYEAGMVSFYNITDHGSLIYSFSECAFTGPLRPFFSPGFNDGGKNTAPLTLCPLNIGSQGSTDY

Results are given in words; binding and its absence hold for the method and conditions named. Binding seen in cells or lysates may run through a third protein. Some binding calls cover weakened binding; strength is not graded here.

In the experiment the target is Tripartite motif-containing protein 21 (TRIM21), endogenous (human (endogenous in MCF-7, T-47D, MDA-MB-231, MCF-10A)) (UniProt P19474). Description: co-IP; endogenous proteins in lysates of MCF-7, T-47D, MDA-MB-231 and MCF-10A cells; lysis buffer 50 mM Tris-HCl pH 8.0, 0.5% NP40, 150 mM NaCl, 1 mM EDTA, 0.5% sodium deoxycholate; 3 ug antibody overnight at 4 C, protein A/G Sepharose; IP with SET7/9 antibodies and the reciprocal IP with TRIM21 ….

B1: SET7/9, endogenous (enzyme, UniProt Q8WTS6 1-366)
chain: MDSDDEMVEEAVEGHLDDDGLPHGFCTVTYSSTDRFEGNFVHGEKNGRGKFFFFDGSTLEGYYVDDALQGQGVYTYEDGGVLQGTYVDGELNGPAQEYDTDGRLIFKGQYKDNIRHGVCWIYYPDGGSLVGEVNEDGEMTGEKIAYVYPDERTALYGKFIDGEMIEGKLATLMSTEEGRPHFELMPGNSVYHFDKSTSSCISTNALLPDPYESERVYVAESLISSAGEGLFSKVAVGPNTVMSFYNGVRITHQEVDSRDWALNGNTLSLDEETVIDVPEPYNHVSKYCASLGHKANHSFTPNCIYDMFVHPRFGPIKCIRTLRAVEADEELTVAYGYDHSPPGKSGPEAPEWYQVELKAFQATQQK
With B1, the binding entry is “binds”.
